Laboratory results from publication PMC3388046.
Results are given in words; binding and its absence hold for the method and conditions named.

Molecular target: recombinant uPAR (UniProt Q03405)
Assay: far-Western, overlay or dot blot; ligand blot: 2 µg of recombinant proteins electrophoresed on SDS-PAGE, blotted and probed with ferritin; both purified

For “spleen ferritin (from UniProt P02794 1-183; P02792 1-175) (complex)”, the binding was “no binding”.
